This experiment has as its target C-terminal FLAG-tagged IL-31RA (interleukin 31 receptor alpha), overexpressed from an Origene plasmid (UniProt Q8NI17). Briefly: proximity ligation; in situ Duolink PLA in HEK293T cells transfected for 48 h with plasmids for IL-31RA and CHRM3 or empty control plasmids; methanol-fixed; primary antibodies against IL-31RA and CHRM3; plasma membrane counterstained with cholera toxin-Alexa Fluor 488.

The chains behind the UniProt entries cited, without tags or fusion partners. Residues count along the entry.
UniProt Q8NI17, 20-732: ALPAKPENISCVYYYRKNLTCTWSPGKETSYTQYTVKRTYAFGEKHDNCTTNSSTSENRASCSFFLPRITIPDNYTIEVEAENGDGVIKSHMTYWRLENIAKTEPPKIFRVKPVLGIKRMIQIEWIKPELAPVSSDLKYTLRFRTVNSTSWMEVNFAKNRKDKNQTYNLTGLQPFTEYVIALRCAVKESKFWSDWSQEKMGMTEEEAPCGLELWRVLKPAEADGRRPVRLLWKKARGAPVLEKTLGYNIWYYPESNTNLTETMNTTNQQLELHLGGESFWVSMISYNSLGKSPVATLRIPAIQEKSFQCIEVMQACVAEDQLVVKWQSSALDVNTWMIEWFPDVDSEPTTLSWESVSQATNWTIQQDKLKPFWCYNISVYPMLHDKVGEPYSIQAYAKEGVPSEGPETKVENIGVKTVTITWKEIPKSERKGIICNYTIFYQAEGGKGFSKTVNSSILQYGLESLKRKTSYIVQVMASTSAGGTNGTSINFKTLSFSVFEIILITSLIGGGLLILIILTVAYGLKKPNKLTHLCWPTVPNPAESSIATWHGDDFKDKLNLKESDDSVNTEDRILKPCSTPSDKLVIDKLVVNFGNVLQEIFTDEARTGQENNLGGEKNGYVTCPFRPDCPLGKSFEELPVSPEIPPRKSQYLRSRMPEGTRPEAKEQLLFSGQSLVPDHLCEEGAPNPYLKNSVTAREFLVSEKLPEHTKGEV
UniProt P20309, whole entry: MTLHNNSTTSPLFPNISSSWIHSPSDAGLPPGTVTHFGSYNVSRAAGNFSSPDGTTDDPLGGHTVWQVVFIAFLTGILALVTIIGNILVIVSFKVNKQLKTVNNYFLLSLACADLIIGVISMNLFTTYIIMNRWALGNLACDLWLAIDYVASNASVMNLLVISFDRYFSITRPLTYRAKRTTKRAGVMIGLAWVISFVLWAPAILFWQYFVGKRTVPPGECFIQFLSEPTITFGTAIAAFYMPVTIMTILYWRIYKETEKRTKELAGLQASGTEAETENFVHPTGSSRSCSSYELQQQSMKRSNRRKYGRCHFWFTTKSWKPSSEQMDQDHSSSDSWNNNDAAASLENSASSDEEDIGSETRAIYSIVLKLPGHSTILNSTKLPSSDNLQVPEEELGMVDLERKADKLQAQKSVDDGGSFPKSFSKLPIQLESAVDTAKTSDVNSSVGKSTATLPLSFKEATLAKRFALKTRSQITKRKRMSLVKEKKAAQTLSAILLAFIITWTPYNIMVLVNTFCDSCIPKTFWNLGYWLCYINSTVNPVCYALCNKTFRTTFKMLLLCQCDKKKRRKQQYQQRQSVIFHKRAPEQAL

In publication PMC10713652 one finds binding data, which are given here for one substance.

These are yes or no findings as the source states them, for the method shown. In cells and extracts the contact can be indirect. Some results given as binding are weak or reduced against the parent protein; the word gives no strength.

Consider “CHRM3 (muscarinic acetylcholine receptor 3), overexpressed from an Origene plasmid (from UniProt P20309 1-590)”, for which the binding entry is recorded as “binds”.
